The values below come from patent US20090098054.

Chains of the proteins cited; added tags and fusions are not shown. A line that says so, or that is headed by a name, gives the form on record, which may keep a tag or linker. Residues count along the entry.
UniProt O43474, 10-513: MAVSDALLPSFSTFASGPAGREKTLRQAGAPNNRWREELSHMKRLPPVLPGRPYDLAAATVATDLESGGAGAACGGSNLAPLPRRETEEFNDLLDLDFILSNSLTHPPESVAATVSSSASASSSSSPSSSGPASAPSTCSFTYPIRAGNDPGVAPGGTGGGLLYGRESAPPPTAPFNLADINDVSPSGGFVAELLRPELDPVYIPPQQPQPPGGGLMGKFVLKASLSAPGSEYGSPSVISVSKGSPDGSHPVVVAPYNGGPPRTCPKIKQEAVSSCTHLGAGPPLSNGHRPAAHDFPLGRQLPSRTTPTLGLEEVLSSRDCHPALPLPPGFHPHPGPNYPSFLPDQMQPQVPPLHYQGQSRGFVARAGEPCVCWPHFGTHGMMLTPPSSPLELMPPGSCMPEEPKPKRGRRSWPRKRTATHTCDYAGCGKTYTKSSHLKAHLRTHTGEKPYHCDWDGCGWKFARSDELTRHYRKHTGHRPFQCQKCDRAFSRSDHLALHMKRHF
MUC1-C (MUC1 C-terminal subunit) (Homo sapiens), one chain, as listed by the source: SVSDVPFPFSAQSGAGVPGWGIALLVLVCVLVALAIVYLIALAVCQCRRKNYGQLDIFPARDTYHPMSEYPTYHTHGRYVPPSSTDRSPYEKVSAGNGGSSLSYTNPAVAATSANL

Results from cells or extracts need not show a direct contact. For some assays here: The exact form of at least one protein or probe is not confirmed.

For data set [1], the system named is MUC1-C (MUC1 C-terminal subunit) (Homo sapiens). The data set can be described thus: binding assay. The note with it: ChIP; occupancy likely indirect via KLF4; protein in cells.
Data set [2] concerns the target KLF4 (Homo sapiens) (UniProt O43474). The data set can be described thus: binding assay. The note with it: ChIP and Re-ChIP after anti-MUC1-C; KLF4 occupancy decreased upon MUC1 silencing; protein in cells; protein details: endogenous, MCF-7 and ZR-75-1 cells.

Take “GCCCTTACTTGTCATGGCGACTGTCCAGCTTTGTGCCAGGAGCCTCGCAGGGGTTGATGGGATTG (double strand) [p53 promoter PE21 region (-118 to -54)]”: the binding result in data set [1] and in data set [2] was “binds” each time.
